# Results reported in patent US10544112B2, “Identification of ebsulfur analogues with broad-spectrum antifungal activity” (priority 2017, dated 2020).
# For some assays here: At least one structure is not confirmed: it was looked up by name or label, or the drawing left a doubt. Marks after values point to notes of the source that are not given here. Some results were stated once for a whole list of compounds, not compound by compound. Some ranges recur; such a range may be that of the whole group of compounds.
# Legend:
# [1] = system: Aspergillus nidulans ATCC 38163 (strain L); conditions: azoles, previously reported (Shrestha 2015); cited from earlier work
# [2] = system: C. albicans ATCC MYA-2876(S) (strain C); conditions: azoles, previously reported (Shrestha 2015); cited from earlier work
# [3] = system: C. albicans ATCC MYA-1237(R) (strain F); conditions: azoles, previously reported (Shrestha 2015); cited from earlier work
# [4] = system: C. albicans ATCC 90819(R) (strain D); conditions: azoles, previously reported (Shrestha 2015); cited from earlier work
# [5] = system: C. albicans ATCC MYA-1003(R) (strain G); conditions: azoles, previously reported (Shrestha 2015); cited from earlier work
# [6] = system: Candida and Aspergillus strains; test: Antifungal MIC, summary over whole panel of fungal strains; format: cell-based; conditions: controls, tested herein or previously published
# Method: Fungal MIC determination experiments were performed using untreated 96-well plates (Corning). Cells were counted either by using a hemocytometer (Hausser Scientific, Horsham, Pa., USA) or by measuring optical density at attenuance of 600 nm (OD600) by using a Genesys 20 spectrophotometer (Thermo Scientific, Waltham, Mass., USA). Spectrophotometric and colorimetric measurements in 96-well plates were performed using a SpectraMax M5 spectrometer (Molecular Devices, Sunnyvale, Calif., USA).
# Yeast strains Candida albicans ATCC 10231 (strain A), C. albicans ATCC 64124 (strain B), and C. albicans ATCC MYA-2876(S) (strain C) were kindly provided by Dr. Jon Y. Takemoto (Utah State University, Logan, UT, USA). C. albicans ATCC MYA-90819(R) (strain D), C. albicans ATCC MYA-2310(S) (strain E), C. albicans ATCC 1237(R) (strain F), C. albicans ATCC MYA-1003(R) (strain G), Candida glabrata ATCC 2001 (strain H), Candida krusei ATCC 6258 (strain I), and Candida parapsilosis ATCC 22019 (strain J) were obtained from the American Type Culture Collection (ATCC, Manassas, Va., USA). The (S) and (R) indicate that ATCC reports these strains to be susceptible (S) and resistant (R) to ITC and FLC. The filamentous fungal strains Aspergillus flavus ATCC MYA-3631 (strain K), and Aspergillus terreus ATCC MYA-3633 (strain M) were also obtained from the American Type Culture Collection (ATCC, Manassas, Va., USA). Aspergillus nidulans ATCC 38163 (strain L) was kindly provided by Dr. Jon S. Thorson (University of Kentucky, Lexington, Ky., USA), respectively. Yeast strains were cultured at 35° C. Filamentous fungal strains were cultured at 25° C. and the spores were harvested. […]
# The MIC values against fungal strains were determined based on a previously published protocol. MIC values for ebsulfur (2a) analogues against fungal cells were evaluated in 96-well plates as described in the CLSI document M27-A3 with minor modifications. […]
# [7] = system: C. albicans ATCC 64124 (strain B); conditions: azoles, previously reported (Shrestha 2015); cited from earlier work
# [8] = system: C. albicans ATCC MYA-2310(S) (strain E); conditions: azoles, previously reported (Shrestha 2015); cited from earlier work
# [9] = system: Candida albicans ATCC 10231 (strain A); conditions: azoles, previously reported (Shrestha 2015); cited from earlier work
SMILES,MIC-0 [1],MIC-2 [2],MIC-2 [3],MIC-2 [4],MIC-2 [5],"MIC values, range over the panel of fungal strains [6]",MIC-2 [7],MIC-2 [8],MIC-2 [9]
"CCC(C)n1ncn(-c2ccc(N3CCN(c4ccc(OCC5COC(Cn6cncn6)(c6ccc(Cl)cc6Cl)O5)cc4)CC3)cc2)c1=O (centres unmarked) [ITC, itraconazole]",0.195^a μg/mL,7.8^a μg/mL,31.2^a μg/mL,31.2^a μg/mL,31.2^a μg/mL,<0.03 to 31.2 µg/mL,>62.5^a μg/mL,31.2^a μg/mL,0.5^a μg/mL
"CC[C@@H]([C@H](C)O)n1ncn(-c2ccc(N3CCN(c4ccc(OC[C@@H]5CO[C@@](Cn6cncn6)(c6ccc(F)cc6F)C5)cc4)CC3)cc2)c1=O [POS, posaconazole]",,,,,,<0.03 to 31.2 µg/mL,,,
"C[C@@H](c1ncncc1F)[C@](O)(Cn1cncn1)c1ccc(F)cc1F [VOR, voriconazole, reference compound]",,,,,,<0.03 to 31.2 µg/mL,,,
